In paper PMC7142020:
These are yes or no findings as the source states them, for the method shown. Binding seen in cells or lysates may run through a third protein. A result given as binding can be weak or reduced; the word gives no strength. For some assays here: Where a sequence is shown, tags or fusion partners need not be part of it.

Legend:
[1] = target: T1, HES5wt-FLAG (human) (UniProt Q5TA89); assay: co-IP; HEK293T cells transiently co-transfected with HES5wt-FLAG or HES5mut-FLAG together with AKT; anti-FLAG immunoprecipitation; western blot with anti-pAKT(Ser473), anti-AKT or anti-HES5
T1 sequence: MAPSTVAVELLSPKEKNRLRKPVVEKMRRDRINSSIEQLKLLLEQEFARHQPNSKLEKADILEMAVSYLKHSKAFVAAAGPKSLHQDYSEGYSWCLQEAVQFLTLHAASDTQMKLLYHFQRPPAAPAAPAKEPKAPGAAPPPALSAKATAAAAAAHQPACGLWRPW

[2] = target: T2, HES5wt (Dox-inducible in Hep3B cells) (human) (UniProt Q5TA89); assay: proximity ligation; PLA in Hep3B cells expressing HES5wt or HES5mut with or without induction by 2 µg/ml Dox; confocal imaging; PLA dots per cell counted
T2 sequence: T1 sequence

| Substance | binding [1] | binding [2] |
| --- | --- | --- |
| AKT (enzyme) | binds | – |
| AKT (in Hep3B cells) (enzyme) | – | binds |
